Measurements taken from patent US20150315153A1, “NOVEL SULFONIC ACID DERIVATIVE COMPOUND, PHOTOACID GENERATOR, CATIONIC POLYMERIZATION INITIATOR, RESIST COMPOSITION, AND CATIONICALLY POLYMERIZABLE COMPOSITION” (ADEKA CORPORATION, priority 2012, published 2015).

Assay: Acid generation rate on 365 nm UV irradiation, titration with KOH
Details: 100 mW/cm^2, 0.5%-by-mass in acetonitrile/water 9/1
Procedure: For each of Compound Nos. 4, 7, 10 and 20 as well as Comparative Compound 1, a 0.5%-by-mass acetonitrile/water mixed solution (volume ratio: acetonitrile/water =9/1) was prepared, and 5.0 g thereof was placed in a Petri dish having an inner diameter of 50 mm. Using a UV lamp and a cut filter transmitting only light having a wavelength of about 365 nm, which are manufactured by Hoya Candeo Optronics Corporation, the mixed solution was irradiated with UV having an intensity of 100 mW/cm^2. The irradiation time was 10 seconds, 30 seconds and 60 seconds for each solution. After the irradiation, the resultant was diluted with 45 g of acetonitrile/water mixed solution (volume ratio: acetonitrile/water=9/1) and then titrated with 0.1 N aqueous potassium hydroxide solution using an automatic titrator manufactured by Hiranuma Sangyo Co., Ltd. (COM-1600). The acid concentration was determined from the used volume and the acid generation rate (mol %) was calculated therefrom.

SMILES | acid generation rate (30 seconds irradiation) | acid generation rate (60 seconds irradiation) | acid generation rate (10 seconds irradiation)
CC1(C)C2CCC1(CS(=O)(=O)ON1C(=O)c3cccc4cccc(c34)C1=O)C(=O)C2 (centres unmarked) [Comparative Compound 1, reference compound] | 2.2 mol % | 6.6 mol % | –
CCCCc1ccc2c3c(cccc13)C(=O)N(OS(=O)(=O)C(F)(F)F)C2=O [Compound No. 4] | 57.4 mol % | 59.0 mol % | 28.3 mol %
CCCCc1ccc2c3c(cccc13)C(=O)N(OS(=O)(=O)c1ccc(C)cc1)C2=O [Compound No. 6] | 18.3 mol % | 20.1 mol % | 18.1 mol %
CCCCc1ccc2c3c(cccc13)C(=O)N(OS(=O)(=O)c1c(C(C)C)cc(C(C)C)cc1C(C)C)C2=O [Compound No. 7] | 1.1 mol % | 1.6 mol % | 0.4 mol %
CCCCc1ccc2c3c(cccc13)C(=O)N(OS(=O)(=O)CC13CCC(CC1=O)C3(C)C)C2=O (centres unmarked) [Compound No. 10] | 0.3 mol % | 0.9 mol % | so small that the measurement could not be performed
CCc1ccc2c3c(cccc13)C(=O)N(OS(=O)(=O)C(F)(F)F)C2=O [Compound No. 20] | 47.7 mol % | 65.5 mol % | 29.1 mol %
CCCCc1ccc2c3c(cccc13)C(=O)N(OS(=O)(=O)c1ccc(C(F)(F)F)cc1)C2=O [Compound No. 35] | 6.8 mol % | 11.1 mol % | 4.1 mol %
CCCCC(CC)Cc1ccc2c3c(cccc13)C(=O)N(OS(=O)(=O)c1ccc(C)cc1)C2=O (centres unmarked) [Compound No. 38] | 14.3 mol % | 16.4 mol % | 13.4 mol %
CCCCCCCCCCCCCCc1ccc2c3c(cccc13)C(=O)N(OS(=O)(=O)c1ccc(C)cc1)C2=O [Compound No. 40] | 17.4 mol % | 18.3 mol % | 9.9 mol %
